Assay results from US20140243195A1, “N-Thio-anthranilamide compounds and their use as pesticides” (BASF SE, priority 2011, published 2014).
Some of these results come from one statement about several compounds together.

Columns and labels:
Type in all cases: in vivo
[1] = test system: Mediterranean Fruitfly (Ceratitis capitata); assay: Mediterranean fruitfly (Ceratitis capitata) microtiter plate insect diet test; details: at 2500 ppm; egg and larval mortality after 5 days; in comparison with untreated controls
Procedure: For evaluating control of Mediterranean fruitfly (Ceratitis capitata) the test unit consisted of microtiter plates containing an insect diet and 50-80 C. capitata eggs.
(§1) The compounds were formulated using a solution containing 75% v/v water and 25% v/v DMSO. Different concentrations of formulated compounds were sprayed onto the insect diet at 5 μl, using a custom built micro atomizer, at two replications.
After application, microtiter plates were incubated at about 28±1° C. and about 80±5% relative humidity for 5 days. Egg and larval mortality was then visually assessed.

[2] = test system: Cowpea Aphid (Aphis craccivora); assay: Cowpea aphid (Aphis craccivora) spray test on potted cowpea plants; details: at 300 ppm; assessed after 72 hours; in comparison with untreated controls
Procedure: The active compound was dissolved at the desired concentration in a mixture of 1:1 (vol:vol) distilled water:acetone. Surfactant (Alkamuls® EL 620) is added at a rate of 0.1% (vol/vol). The test solution was prepared at the day of use.
Potted cowpea plants were colonized with approximately 50-100 aphids of various stages by manually transferring a leaf tissue cut from infested plant 24 hours before application. Plants were sprayed after the pest population has been recorded. Treated plants were maintained on light carts at about 28° C. Percent mortality was assessed after 72 hours.

[3] = test system: Orchid Thrips (Dichromothrips corbetti); assay: Orchid thrips (Dichromothrips corbetti) floral-immersion test; details: at 500 ppm; adult thrips; 72 hours after treatment; in comparison with untreated controls
Procedure: Dichromothrips corbetti adults used for bioassay were obtained from a colony maintained continuously under laboratory conditions. For testing purposes, the test compound was diluted in a 1:1 mixture of acetone:water (vol:vol), plus 0.01% vol/vol Alkamuls® EL 620 surfactant.
Thrips potency of each compound was evaluated by using a floral-immersion technique. Plastic petri dishes were used as test arenas. All petals of individual, intact orchid flowers were dipped into treatment solution and allowed to dry. Treated flowers were placed into individual petri dishes along with—about 20 adult thrips. The petri dishes were then covered with lids. All test arenas were held under continuous light and a temperature of about 28° C. for duration of the assay. After 3 days, the numbers of live thrips were counted on each flower, and along inner walls of each petri dish. The percent mortality was recorded 72 hours after treatment.

[4] = test system: Southern Armyworm (Spodoptera eridania); assay: Southern armyworm (Spodoptera eridania) spray test on lima bean plants; details: at 300 ppm; larvae; 4 days after treatment; in comparison with untreated controls
Procedure: (§2) The active compounds were formulated in cyclohexanone as a 10,000 ppm solution supplied in tubes. The tubes were inserted into an automated electrostatic sprayer equipped with an atomizing nozzle and they served as stock solutions for which lower dilutions were made in 50% acetone:50% water (v/v). A nonionic surfactant (Kinetic®) was included in the solution at a volume of 0.01% (v/v).
(§3) Lima bean plants (variety Sieva) were grown 2 plants to a pot and selected for treatment at the 1st true leaf stage. Test solutions were sprayed onto the foliage by an automated electrostatic plant sprayer equipped with an atomizing spray nozzle. The plants were dried in the sprayer fume hood and then removed from the sprayer. Each pot was placed into perforated plastic bags with a zip closure. About 10 to 11 armyworm larvae were placed into the bag and the bags zipped closed. Test plants were maintained in a growth room at about 25° C. and about 20-40% relative humidity for 4 days, avoiding direct exposure to fluorescent light (24 hour photoperiod) to prevent trapping of heat inside the bags. Mortality and reduced feeding were assessed 4 days after treatment, compared to untreated control plants.

[5] = test system: Tobacco Budworm (Heliothis virescens); assay: Tobacco budworm (Heliothis virescens) I spray test on cotton plants; details: at 2500 ppm; larvae; 4 days after treatment; in comparison with untreated controls
Procedure: as §2
as §3, with “Cotton” for “Lima bean”, “plants” for “plants (variety Sieva)”, “cotyledon” for “1st true leaf”, “budworm” for “armyworm”

[6] = test system: Boll Weevil (Anthonomus grandis); assay: Boll weevil (Anthonomus grandis) microtiter plate insect diet test; details: at 2500 ppm; egg and larval mortality after 5 days; in comparison with untreated controls
Procedure: For evaluating control of boll weevil (Anthonomus grandis) the test unit consisted of 96-well-microtiter plates containing an insect diet and 5-10 A. grandis eggs.
as §1
After application, microtiter plates were incubated at about 25±1° C. and about 75±5% relative humidity for 5 days. Egg and larval mortality was then visually assessed.

[7] = test system: Diamond Back Moth (Plutella xylostella); assay: Diamond back moth (Plutella xylostella) cabbage leaf dip test; details: at 300 ppm; 3rd instar larvae; 72 hours after treatment; in comparison with untreated controls
Procedure: The active compound was dissolved at the desired concentration in a mixture of 1:1 (vol:vol) distilled water:acetone. Surfactant (Alkamuls® EL 620) is added at a rate of 0.1% (vol/vol).The test solution was prepared at the day of use.
Leaves of cabbage were dipped in test solution and air-dried. Treated leaves were placed in petri dishes lined with moist filter paper and inoculated with ten 3rd instar larvae. Mortality was recorded 72 hours after treatment. Feeding damages were also recorded using a scale of 0-100%.

Measured: mortality

CC(C)S(=NC(=O)c1cc(Cl)cc(Cl)c1NC(=O)c1ccc(C(F)(F)F)nc1-c1ncccc1Cl)C(C)C [Compound 2-6]
at least 75%: all assays above
